Reference: publication doi:10.1101/2022.10.05.511050 (bioRxiv, 2022)
No constants are given. Whether binding was seen depends on the method and setting. In cells and extracts the contact can be indirect. These calls come from enrichment with a bait or labelling near it, and not all partners need be listed.

The chains behind the UniProt entries cited, without tags or fusion partners.
UniProt Q8R4B8: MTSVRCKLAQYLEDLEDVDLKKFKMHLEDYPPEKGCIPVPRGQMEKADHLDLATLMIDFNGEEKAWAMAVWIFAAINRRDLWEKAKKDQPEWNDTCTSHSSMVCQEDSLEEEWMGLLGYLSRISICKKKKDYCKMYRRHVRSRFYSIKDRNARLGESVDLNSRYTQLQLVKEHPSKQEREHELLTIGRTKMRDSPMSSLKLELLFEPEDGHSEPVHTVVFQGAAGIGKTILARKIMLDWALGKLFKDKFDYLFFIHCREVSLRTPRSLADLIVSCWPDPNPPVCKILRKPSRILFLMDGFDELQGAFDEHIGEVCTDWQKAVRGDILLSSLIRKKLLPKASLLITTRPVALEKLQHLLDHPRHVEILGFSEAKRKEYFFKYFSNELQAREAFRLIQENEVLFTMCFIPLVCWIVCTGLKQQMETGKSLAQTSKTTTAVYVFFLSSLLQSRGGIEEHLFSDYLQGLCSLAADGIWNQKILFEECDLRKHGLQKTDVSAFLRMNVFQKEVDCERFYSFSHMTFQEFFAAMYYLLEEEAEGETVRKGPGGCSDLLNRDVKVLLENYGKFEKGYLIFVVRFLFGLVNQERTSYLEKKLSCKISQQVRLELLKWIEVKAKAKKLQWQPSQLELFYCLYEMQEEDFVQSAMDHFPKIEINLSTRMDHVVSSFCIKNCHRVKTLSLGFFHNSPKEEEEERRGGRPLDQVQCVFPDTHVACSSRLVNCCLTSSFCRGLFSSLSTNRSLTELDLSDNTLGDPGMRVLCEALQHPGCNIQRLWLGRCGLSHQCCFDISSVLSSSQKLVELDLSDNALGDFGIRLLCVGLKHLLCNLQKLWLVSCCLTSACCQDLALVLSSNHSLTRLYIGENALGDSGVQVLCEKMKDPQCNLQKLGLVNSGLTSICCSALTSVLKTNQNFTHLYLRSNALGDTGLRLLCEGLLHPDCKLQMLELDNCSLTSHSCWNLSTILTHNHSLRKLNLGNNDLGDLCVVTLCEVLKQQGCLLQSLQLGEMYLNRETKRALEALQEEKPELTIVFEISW
UniProt Q80X73: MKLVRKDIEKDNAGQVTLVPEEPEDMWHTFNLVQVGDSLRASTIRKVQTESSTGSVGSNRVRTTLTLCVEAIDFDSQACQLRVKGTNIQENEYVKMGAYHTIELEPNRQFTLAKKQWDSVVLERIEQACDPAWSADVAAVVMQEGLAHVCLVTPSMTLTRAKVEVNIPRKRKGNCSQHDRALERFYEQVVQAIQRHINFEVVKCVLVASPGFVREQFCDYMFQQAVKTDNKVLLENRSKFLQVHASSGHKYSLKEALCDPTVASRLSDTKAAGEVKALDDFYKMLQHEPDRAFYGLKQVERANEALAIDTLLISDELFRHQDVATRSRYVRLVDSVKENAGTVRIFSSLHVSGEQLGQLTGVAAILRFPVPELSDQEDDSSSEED

Target: Flag-NLRP3 (reconstituted in J774 cells) (UniProt Q8R4B8)
Experiment: affinity purification with mass spectrometry

binding: binds
Substance: endogenous PELO (protein pelota homolog) (from UniProt Q80X73 1-385)
